{"source": "PubChem BioAssay AID504764 (Drosophila RNAi Screening Center, 2011)", "screen": "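Knock-downs that raise or lower a Notch target reporter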 (primary screen)", "system": "Drosophila Kc167 cells", "knock-down reagent": "long dsRNA against Drosophila genes", "duration": "about 5 days (4 days dsRNA, then 24 h after transfection)", "treatment": "transfection of constitutively active membrane-tethered Notch lacking the extracellular domain, read 24 h later", "measurement": "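Firefly luciferase from an E(spl)m3 reporter with active Notch, plus control-promoter and uninduced reporter wells for normalisation; unnormalised counts, duplicate wells a and b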", "reading the numbers": "induced reporter light, run 1, well a and induced reporter light, run 1, well b: higher = more light from the Notch target reporter with active Notch; control promoter light, run 1, well a and control promoter light, run 1, well b: higher = more light from the viral control promoter (cell number, transfection, viability); uninduced reporter light, run 1, well a: higher = more light from the Notch target reporter without active Notch", "active means": "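Wells with low control signal or poorly matching duplicates excluded; duplicates averaged; per source plate, z beyond ±2 for induced/control log2 ratio or beyond ±1.8 for induced/uninduced marks a hit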", "meaning of the calls": "active = modifier hit (raised or lowered Notch signal); inactive = not a hit", "note": "The deposit covers about 22,000 reagents; this is an unselected part of those with a known target gene and a result. Over the whole deposit, 403 (1.9%) were called active. 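Unnormalised raw counts per well; ratio z-scores behind the hit calls and whether each hit raises or lowers signal are not deposited.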 Not given: the amount of reagent."}
The opening 3 entries, ahead of the listing:
{"gene":"CG7133 (GeneID 40449)","induced reporter light, run 1, well a":1.26e5,"induced reporter light, run 1, well b":1.09e5,"control promoter light, run 1, well a":65745,"control promoter light, run 1, well b":87950,"uninduced reporter light, run 1, well a":8780,"outcome":"inactive"}
{"gene":"CG10927 (GeneID 37135)","induced reporter light, run 1, well a":79855,"induced reporter light, run 1, well b":1.08e5,"control promoter light, run 1, well a":1.59e5,"control promoter light, run 1, well b":1.67e5,"uninduced reporter light, run 1, well a":6850,"outcome":"inactive"}
{"gene":"ppk23 (GeneID 32731)","induced reporter light, run 1, well a":40375,"induced reporter light, run 1, well b":50155,"control promoter light, run 1, well a":50590,"control promoter light, run 1, well b":57120,"uninduced reporter light, run 1, well a":7350,"outcome":"inactive"}

The listing, from the first entry:
{"gene":"CG7133 (GeneID 40449)","induced reporter light, run 1, well a":1.26e5,"induced reporter light, run 1, well b":1.09e5,"control promoter light, run 1, well a":65745,"control promoter light, run 1, well b":87950,"uninduced reporter light, run 1, well a":8780,"outcome":"inactive"}
{"gene":"CG10927 (GeneID 37135)","induced reporter light, run 1, well a":79855,"induced reporter light, run 1, well b":1.08e5,"control promoter light, run 1, well a":1.59e5,"control promoter light, run 1, well b":1.67e5,"uninduced reporter light, run 1, well a":6850,"outcome":"inactive"}
{"gene":"ppk23 (GeneID 32731)","induced reporter light, run 1, well a":40375,"induced reporter light, run 1, well b":50155,"control promoter light, run 1, well a":50590,"control promoter light, run 1, well b":57120,"uninduced reporter light, run 1, well a":7350,"outcome":"inactive"}
{"gene":"Mal-A4 (GeneID 35827)","induced reporter light, run 1, well a":2.07e5,"induced reporter light, run 1, well b":1.79e5,"control promoter light, run 1, well a":2.40e5,"control promoter light, run 1, well b":2.51e5,"uninduced reporter light, run 1, well a":18230,"outcome":"inactive"}
{"gene":"CG4259 (GeneID 33385)","induced reporter light, run 1, well a":1.01e5,"induced reporter light, run 1, well b":1.03e5,"control promoter light, run 1, well a":1.06e5,"control promoter light, run 1, well b":64125,"uninduced reporter light, run 1, well a":9385,"outcome":"inactive"}
{"gene":"CG10730 (GeneID 35291)","induced reporter light, run 1, well a":52220,"induced reporter light, run 1, well b":50130,"control promoter light, run 1, well a":59520,"control promoter light, run 1, well b":55660,"uninduced reporter light, run 1, well a":4535,"outcome":"inactive"}
{"gene":"CG4612 (GeneID 37914)","induced reporter light, run 1, well a":1.43e5,"induced reporter light, run 1, well b":1.62e5,"control promoter light, run 1, well a":1.57e5,"control promoter light, run 1, well b":1.93e5,"uninduced reporter light, run 1, well a":13265,"outcome":"inactive"}
{"gene":"Septin4 (GeneID 32646)","induced reporter light, run 1, well a":1.03e5,"induced reporter light, run 1, well b":1.14e5,"control promoter light, run 1, well a":95515,"control promoter light, run 1, well b":68195,"uninduced reporter light, run 1, well a":8335,"outcome":"inactive"}
{"gene":"side-IV (GeneID 41657)","induced reporter light, run 1, well a":2.19e5,"induced reporter light, run 1, well b":2.11e5,"control promoter light, run 1, well a":2.12e5,"control promoter light, run 1, well b":2.40e5,"uninduced reporter light, run 1, well a":18130,"outcome":"inactive"}
{"gene":"CG16719 (GeneID 39131)","induced reporter light, run 1, well a":1.10e5,"induced reporter light, run 1, well b":1.40e5,"control promoter light, run 1, well a":84135,"control promoter light, run 1, well b":40680,"uninduced reporter light, run 1, well a":10110,"outcome":"inactive"}
{"gene":"Lamtor5 (GeneID 31137)","induced reporter light, run 1, well a":1.11e5,"induced reporter light, run 1, well b":1.45e5,"control promoter light, run 1, well a":2.10e5,"control promoter light, run 1, well b":2.06e5,"uninduced reporter light, run 1, well a":8610,"outcome":"inactive"}
{"gene":"CG32631 (GeneID 32311)","induced reporter light, run 1, well a":1.84e5,"induced reporter light, run 1, well b":1.83e5,"control promoter light, run 1, well a":2.79e5,"control promoter light, run 1, well b":2.49e5,"uninduced reporter light, run 1, well a":13160,"outcome":"inactive"}
{"gene":"CG1024 (GeneID 40789)","induced reporter light, run 1, well a":1.05e5,"induced reporter light, run 1, well b":1.09e5,"control promoter light, run 1, well a":87965,"control promoter light, run 1, well b":69165,"uninduced reporter light, run 1, well a":5190,"outcome":"inactive"}
{"gene":"CG7275 (GeneID 39669)","induced reporter light, run 1, well a":1.11e5,"induced reporter light, run 1, well b":1.19e5,"control promoter light, run 1, well a":49625,"control promoter light, run 1, well b":70895,"uninduced reporter light, run 1, well a":9880,"outcome":"inactive"}
{"gene":"Elp5 (GeneID 38287)","induced reporter light, run 1, well a":1.17e5,"induced reporter light, run 1, well b":1.11e5,"control promoter light, run 1, well a":2.01e5,"control promoter light, run 1, well b":1.23e5,"uninduced reporter light, run 1, well a":7535,"outcome":"inactive"}
{"gene":"CG2061 (GeneID 32042)","induced reporter light, run 1, well a":2.11e5,"induced reporter light, run 1, well b":1.88e5,"control promoter light, run 1, well a":2.43e5,"control promoter light, run 1, well b":2.39e5,"uninduced reporter light, run 1, well a":15785,"outcome":"inactive"}
{"gene":"Apc2 (GeneID 42871)","induced reporter light, run 1, well a":33845,"induced reporter light, run 1, well b":41360,"control promoter light, run 1, well a":35960,"control promoter light, run 1, well b":41850,"uninduced reporter light, run 1, well a":3165,"outcome":"inactive"}
{"gene":"CG13398 (GeneID 34169)","induced reporter light, run 1, well a":1.40e5,"induced reporter light, run 1, well b":1.83e5,"control promoter light, run 1, well a":99160,"control promoter light, run 1, well b":1.13e5,"uninduced reporter light, run 1, well a":23150,"outcome":"inactive"}
{"gene":"CG8840 (GeneID 33557)","induced reporter light, run 1, well a":1.70e5,"induced reporter light, run 1, well b":1.28e5,"control promoter light, run 1, well a":1.31e5,"control promoter light, run 1, well b":1.39e5,"uninduced reporter light, run 1, well a":10505,"outcome":"inactive"}
{"gene":"CG10026 (GeneID 35226)","induced reporter light, run 1, well a":92055,"induced reporter light, run 1, well b":82390,"control promoter light, run 1, well a":93470,"control promoter light, run 1, well b":1.54e5,"uninduced reporter light, run 1, well a":6450,"outcome":"inactive"}
{"gene":"l(1)G0320 (GeneID 326234)","induced reporter light, run 1, well a":1.63e5,"induced reporter light, run 1, well b":1.62e5,"control promoter light, run 1, well a":2.01e5,"control promoter light, run 1, well b":1.90e5,"uninduced reporter light, run 1, well a":15975,"outcome":"inactive"}
{"gene":"CG9757 (GeneID 41662)","induced reporter light, run 1, well a":2.01e5,"induced reporter light, run 1, well b":2.15e5,"control promoter light, run 1, well a":1.78e5,"control promoter light, run 1, well b":2.11e5,"uninduced reporter light, run 1, well a":16370,"outcome":"inactive"}
{"gene":"lwr (GeneID 33226)","induced reporter light, run 1, well a":69880,"induced reporter light, run 1, well b":60685,"control promoter light, run 1, well a":77690,"control promoter light, run 1, well b":90495,"uninduced reporter light, run 1, well a":8320,"outcome":"inactive"}
{"gene":"CG1703 (GeneID 32112)","induced reporter light, run 1, well a":1.22e5,"induced reporter light, run 1, well b":1.06e5,"control promoter light, run 1, well a":2.20e5,"control promoter light, run 1, well b":1.67e5,"uninduced reporter light, run 1, well a":8020,"outcome":"inactive"}
